Drawing on the supplement of paper PMC10849652, this text covers log2 fold change for 38 targets.

The chains behind the UniProt entries cited, without tags or fusion partners. Where a name states a change or a piece, a line headed by the entry shows the natural chain unless it says otherwise.
UniProt Q9Y232: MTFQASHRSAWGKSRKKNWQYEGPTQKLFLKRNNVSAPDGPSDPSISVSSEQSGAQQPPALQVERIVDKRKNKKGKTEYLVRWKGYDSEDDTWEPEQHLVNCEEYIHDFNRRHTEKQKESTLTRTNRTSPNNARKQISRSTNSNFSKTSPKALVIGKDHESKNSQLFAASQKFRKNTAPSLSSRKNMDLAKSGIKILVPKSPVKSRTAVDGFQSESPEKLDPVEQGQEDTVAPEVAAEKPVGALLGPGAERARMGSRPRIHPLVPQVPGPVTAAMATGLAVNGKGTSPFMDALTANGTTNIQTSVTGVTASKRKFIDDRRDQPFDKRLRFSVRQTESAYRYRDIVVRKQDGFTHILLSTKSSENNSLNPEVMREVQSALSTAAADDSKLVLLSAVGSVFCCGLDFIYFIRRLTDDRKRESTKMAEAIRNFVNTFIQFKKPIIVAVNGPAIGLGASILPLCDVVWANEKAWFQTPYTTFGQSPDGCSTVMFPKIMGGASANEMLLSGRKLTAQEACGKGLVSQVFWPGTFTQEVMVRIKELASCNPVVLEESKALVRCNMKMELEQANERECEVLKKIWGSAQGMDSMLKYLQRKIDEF
UniProt P08603, whole entry, looked up: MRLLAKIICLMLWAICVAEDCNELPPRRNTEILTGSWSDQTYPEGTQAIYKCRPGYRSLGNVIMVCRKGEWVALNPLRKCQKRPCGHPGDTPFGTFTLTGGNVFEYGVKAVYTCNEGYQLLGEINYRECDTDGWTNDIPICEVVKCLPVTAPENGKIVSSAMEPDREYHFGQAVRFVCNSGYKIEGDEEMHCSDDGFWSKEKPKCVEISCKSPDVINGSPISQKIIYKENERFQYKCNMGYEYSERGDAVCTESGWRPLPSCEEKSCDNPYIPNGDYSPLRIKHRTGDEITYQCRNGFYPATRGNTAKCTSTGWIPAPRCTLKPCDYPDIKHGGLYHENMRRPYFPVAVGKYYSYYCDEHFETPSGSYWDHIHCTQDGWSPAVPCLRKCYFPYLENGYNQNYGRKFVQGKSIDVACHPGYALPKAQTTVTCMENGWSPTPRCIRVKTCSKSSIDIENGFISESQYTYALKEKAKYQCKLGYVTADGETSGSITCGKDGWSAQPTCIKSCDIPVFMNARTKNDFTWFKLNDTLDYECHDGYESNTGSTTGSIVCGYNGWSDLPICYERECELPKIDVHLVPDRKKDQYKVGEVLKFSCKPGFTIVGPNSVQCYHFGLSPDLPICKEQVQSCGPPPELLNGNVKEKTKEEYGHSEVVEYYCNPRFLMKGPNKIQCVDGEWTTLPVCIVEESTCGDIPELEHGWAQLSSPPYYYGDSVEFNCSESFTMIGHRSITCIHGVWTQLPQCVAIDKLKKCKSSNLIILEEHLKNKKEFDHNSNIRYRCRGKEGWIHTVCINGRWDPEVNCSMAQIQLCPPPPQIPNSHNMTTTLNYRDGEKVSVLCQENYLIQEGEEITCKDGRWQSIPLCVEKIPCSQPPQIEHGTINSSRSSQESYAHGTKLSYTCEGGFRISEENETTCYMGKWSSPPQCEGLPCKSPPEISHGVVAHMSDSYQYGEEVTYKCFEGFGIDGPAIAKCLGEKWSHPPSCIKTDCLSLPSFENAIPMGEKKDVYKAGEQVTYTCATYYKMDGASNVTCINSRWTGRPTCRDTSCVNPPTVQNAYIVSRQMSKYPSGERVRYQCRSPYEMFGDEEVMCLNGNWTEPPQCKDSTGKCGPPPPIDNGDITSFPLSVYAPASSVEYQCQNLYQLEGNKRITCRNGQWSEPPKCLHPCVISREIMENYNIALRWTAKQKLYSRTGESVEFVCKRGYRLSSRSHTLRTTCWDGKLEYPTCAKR
UniProt Q8TD26: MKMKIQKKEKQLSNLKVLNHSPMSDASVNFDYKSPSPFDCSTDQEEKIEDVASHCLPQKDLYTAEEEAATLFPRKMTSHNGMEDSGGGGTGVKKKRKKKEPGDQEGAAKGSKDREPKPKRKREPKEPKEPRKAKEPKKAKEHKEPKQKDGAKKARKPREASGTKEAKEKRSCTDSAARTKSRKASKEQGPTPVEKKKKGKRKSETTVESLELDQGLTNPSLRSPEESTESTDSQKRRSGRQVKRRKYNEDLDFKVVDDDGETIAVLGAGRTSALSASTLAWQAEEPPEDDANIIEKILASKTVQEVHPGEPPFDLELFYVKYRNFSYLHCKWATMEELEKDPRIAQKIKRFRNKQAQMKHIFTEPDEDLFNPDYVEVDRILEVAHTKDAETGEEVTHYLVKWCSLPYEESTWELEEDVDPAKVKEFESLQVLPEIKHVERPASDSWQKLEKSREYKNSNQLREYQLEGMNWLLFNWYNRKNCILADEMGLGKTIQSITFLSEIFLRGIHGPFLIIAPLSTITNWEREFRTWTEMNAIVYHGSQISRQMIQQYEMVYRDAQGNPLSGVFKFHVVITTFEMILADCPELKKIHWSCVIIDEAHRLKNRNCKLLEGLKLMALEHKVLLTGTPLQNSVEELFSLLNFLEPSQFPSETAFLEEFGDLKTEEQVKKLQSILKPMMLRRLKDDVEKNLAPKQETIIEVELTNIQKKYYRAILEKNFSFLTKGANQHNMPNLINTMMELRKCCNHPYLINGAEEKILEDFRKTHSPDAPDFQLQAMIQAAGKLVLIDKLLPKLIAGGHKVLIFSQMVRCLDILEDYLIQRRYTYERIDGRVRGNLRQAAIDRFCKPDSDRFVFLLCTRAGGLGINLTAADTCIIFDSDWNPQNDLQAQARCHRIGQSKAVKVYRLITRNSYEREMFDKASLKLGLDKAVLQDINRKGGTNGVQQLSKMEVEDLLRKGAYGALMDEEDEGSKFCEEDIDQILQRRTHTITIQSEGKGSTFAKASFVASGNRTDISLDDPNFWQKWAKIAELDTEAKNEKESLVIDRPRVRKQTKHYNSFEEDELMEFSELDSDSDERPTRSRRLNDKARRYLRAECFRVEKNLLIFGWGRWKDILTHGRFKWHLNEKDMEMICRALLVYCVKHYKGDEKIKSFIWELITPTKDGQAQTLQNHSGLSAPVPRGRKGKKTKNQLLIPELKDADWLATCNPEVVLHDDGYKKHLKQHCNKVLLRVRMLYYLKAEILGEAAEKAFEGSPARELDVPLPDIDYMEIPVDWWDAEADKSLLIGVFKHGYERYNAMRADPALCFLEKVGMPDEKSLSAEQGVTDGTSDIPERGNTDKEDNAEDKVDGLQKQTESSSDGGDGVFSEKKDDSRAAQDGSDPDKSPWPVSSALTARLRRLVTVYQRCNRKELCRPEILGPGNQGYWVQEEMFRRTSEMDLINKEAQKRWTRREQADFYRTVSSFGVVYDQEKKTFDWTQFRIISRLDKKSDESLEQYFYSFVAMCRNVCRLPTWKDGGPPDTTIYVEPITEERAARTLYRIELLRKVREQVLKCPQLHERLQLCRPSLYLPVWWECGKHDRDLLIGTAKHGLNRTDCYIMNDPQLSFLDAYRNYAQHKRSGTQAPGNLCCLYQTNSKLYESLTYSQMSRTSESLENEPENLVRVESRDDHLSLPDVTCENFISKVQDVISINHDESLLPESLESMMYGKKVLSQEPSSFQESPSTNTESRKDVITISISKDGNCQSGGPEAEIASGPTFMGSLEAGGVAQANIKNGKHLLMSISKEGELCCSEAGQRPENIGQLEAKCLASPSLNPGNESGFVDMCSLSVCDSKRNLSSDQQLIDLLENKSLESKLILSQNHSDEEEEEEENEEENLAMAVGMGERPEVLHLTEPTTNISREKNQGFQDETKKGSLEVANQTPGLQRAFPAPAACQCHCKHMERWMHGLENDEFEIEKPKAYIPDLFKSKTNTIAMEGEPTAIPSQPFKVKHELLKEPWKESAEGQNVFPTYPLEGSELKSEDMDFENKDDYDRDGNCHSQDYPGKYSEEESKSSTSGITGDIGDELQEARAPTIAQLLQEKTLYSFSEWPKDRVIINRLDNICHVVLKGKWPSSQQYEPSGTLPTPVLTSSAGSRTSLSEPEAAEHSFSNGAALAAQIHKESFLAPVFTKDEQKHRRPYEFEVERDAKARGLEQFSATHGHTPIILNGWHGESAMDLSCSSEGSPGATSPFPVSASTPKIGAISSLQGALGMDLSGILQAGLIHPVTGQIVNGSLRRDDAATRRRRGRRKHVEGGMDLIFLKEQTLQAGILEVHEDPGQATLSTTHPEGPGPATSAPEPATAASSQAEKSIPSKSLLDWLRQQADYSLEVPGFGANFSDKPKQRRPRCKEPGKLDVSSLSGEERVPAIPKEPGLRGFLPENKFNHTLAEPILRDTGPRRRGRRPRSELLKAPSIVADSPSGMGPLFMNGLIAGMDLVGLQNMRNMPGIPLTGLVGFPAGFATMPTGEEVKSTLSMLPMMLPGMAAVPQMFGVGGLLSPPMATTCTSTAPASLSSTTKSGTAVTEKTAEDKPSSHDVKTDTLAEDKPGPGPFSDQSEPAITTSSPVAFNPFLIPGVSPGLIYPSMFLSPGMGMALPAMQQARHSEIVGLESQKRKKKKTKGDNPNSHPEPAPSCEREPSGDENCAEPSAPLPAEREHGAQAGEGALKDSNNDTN
UniProt Q9Y6A4: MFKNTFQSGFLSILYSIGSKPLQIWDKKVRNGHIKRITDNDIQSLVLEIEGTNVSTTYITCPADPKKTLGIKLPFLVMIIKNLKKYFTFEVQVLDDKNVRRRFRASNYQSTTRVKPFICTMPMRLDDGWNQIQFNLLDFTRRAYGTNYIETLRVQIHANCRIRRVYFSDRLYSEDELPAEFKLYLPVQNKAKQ
UniProt Q9H3Q1: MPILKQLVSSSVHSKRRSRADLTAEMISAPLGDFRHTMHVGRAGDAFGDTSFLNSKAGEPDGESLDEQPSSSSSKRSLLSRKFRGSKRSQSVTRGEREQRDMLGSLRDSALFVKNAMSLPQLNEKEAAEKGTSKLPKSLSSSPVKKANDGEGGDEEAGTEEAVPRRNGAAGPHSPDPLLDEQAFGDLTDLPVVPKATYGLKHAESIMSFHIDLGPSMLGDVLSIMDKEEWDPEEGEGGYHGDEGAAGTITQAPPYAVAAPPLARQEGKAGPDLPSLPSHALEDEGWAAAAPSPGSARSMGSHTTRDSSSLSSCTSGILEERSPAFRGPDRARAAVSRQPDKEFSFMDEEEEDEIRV
UniProt Q99618: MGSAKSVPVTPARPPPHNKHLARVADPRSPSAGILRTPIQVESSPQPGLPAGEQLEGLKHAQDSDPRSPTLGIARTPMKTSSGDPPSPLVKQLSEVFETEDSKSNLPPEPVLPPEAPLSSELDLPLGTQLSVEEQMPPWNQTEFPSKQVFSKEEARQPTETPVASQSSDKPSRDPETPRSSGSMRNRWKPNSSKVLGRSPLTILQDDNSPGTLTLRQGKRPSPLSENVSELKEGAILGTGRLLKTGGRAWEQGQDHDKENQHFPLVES
UniProt Q9BUK0: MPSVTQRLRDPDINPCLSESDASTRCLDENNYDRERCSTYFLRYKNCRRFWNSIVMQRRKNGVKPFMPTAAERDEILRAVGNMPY
UniProt Q5VV42: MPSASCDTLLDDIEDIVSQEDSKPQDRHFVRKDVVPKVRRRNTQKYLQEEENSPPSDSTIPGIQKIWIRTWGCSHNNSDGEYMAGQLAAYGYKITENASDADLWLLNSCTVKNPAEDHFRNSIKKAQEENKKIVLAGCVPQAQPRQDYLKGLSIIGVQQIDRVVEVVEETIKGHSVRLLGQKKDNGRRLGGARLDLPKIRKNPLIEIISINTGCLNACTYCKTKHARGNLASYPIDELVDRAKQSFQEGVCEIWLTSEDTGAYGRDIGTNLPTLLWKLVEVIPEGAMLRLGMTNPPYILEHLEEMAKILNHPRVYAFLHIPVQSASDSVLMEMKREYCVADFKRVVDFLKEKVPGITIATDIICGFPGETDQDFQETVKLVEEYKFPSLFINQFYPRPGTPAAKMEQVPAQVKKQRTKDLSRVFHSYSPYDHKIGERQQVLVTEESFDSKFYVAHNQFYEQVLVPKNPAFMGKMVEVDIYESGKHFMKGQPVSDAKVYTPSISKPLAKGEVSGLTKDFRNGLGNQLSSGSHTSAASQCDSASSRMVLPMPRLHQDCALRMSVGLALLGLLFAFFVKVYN
UniProt Q9NX63: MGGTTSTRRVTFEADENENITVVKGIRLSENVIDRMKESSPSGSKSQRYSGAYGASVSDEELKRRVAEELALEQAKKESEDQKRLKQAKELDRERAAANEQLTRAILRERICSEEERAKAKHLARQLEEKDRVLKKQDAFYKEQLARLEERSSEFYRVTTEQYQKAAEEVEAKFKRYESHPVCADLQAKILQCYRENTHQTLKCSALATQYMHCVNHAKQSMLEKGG
UniProt Q9HD42: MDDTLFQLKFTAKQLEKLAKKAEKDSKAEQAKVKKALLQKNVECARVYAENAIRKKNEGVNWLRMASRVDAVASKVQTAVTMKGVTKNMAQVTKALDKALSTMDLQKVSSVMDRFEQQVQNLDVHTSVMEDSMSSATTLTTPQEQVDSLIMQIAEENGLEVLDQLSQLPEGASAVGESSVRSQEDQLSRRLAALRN

The other results are listed elsewhere or left out.

Compound in the first experiment: COC(=O)N[C@@H](C)CNc1nccc(-c2cn(C(C)C)nc2-c2cc(Cl)cc(NS(C)(=O)=O)c2F)n1 [encorafenib]
The experiment is described as follows: log2 fold change, soluble protein after heating vs DMSO (PISA); higher = thermal stabilisation; K562 cells, 10 uM, 30 min; active = over 0.2 and 3.5 SD of the protein, either way, in both replicates (recomputed). The method, boiled down:
(§1)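 Quantification of soluble protein used TMTpro 16plex LC-MS/MS, with channel sums equalised. Samples were the supernatant after 21,000xg for 90 min of pooled aliquots from K562 cells (2×10^6 cells/mL) treated with 10 μM compound for 30 min, heated for 3 min over 48°C-58°C, and extracted in PBS with 0.5% NP-40 at 4°C. Values, from duplicates, describe thermal stability against control samples on a log2 fold-change scale.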
Consider CEP44 (UniProt Q9C0F1), for which the log2 fold change is inactive: -0.076.

For the target CDYL (UniProt Q9Y232), the log2 fold change is inactive: 0.015.

Take CFH (UniProt P08603): the log2 fold change was inactive: -0.012.

As for CHD6 (UniProt Q8TD26), the log2 fold change is inactive: 0.01.

Regarding CFL1 (UniProt P23528), the log2 fold change was inactive: -0.028.

Regarding CDCA5 (UniProt Q96FF9), the log2 fold change is inactive: 0.072.

For CHD5 (UniProt Q8TDI0), the log2 fold change was inactive: 0.174.

For the target CEP250 (UniProt Q9BV73), the log2 fold change was inactive: -0.021.

Consider CHMP2A (UniProt O43633), for which the log2 fold change is inactive: 0.03.

As for CHAF1B (UniProt Q13112), the log2 fold change was inactive: -0.028.

Take CHM (UniProt P24386): the log2 fold change was inactive: -0.032.

In the case of CENPH (UniProt Q9H3R5), the log2 fold change is inactive: 0.084.

As for CDKN2C (UniProt P42773), the log2 fold change is inactive: -0.026.

In the case of CELF1 isoform 4 (UniProt Q92879), the log2 fold change was inactive: 0.076.

For the target CDIPT (UniProt O14735), the log2 fold change is inactive: 0.041.

Consider CFAP20 (UniProt Q9Y6A4), for which the log2 fold change is inactive: 0.097.

With CDC42EP4 (UniProt Q9H3Q1), the log2 fold change was inactive: 0.042.

In the case of CDK19 (UniProt Q9BWU1), the log2 fold change is inactive: -0.086.

As for CENPF (UniProt P49454), the log2 fold change was inactive: 0.034.

On to CERS6 isoform 2 (UniProt Q6ZMG9), for which the log2 fold change is inactive: 0.069.

Take CHEK2 isoform 9 (UniProt O96017): the log2 fold change is inactive: 0.032.

CDC42BPA isoform 6 (UniProt Q5VT25): the log2 fold change was inactive: 0.06.

In the case of CEP97 isoform 2 (UniProt Q8IW35), the log2 fold change was inactive: -0.038.

In the case of CDK9 isoform 2 (UniProt P50750), the log2 fold change is inactive: 0.079.

Consider CENPO (UniProt Q9BU64), for which the log2 fold change was inactive: 0.

As for CDCA3 (UniProt Q99618), the log2 fold change was inactive: -0.051.

As to CDS2 (UniProt O95674), the log2 fold change was inactive: -0.009.

As for CEP192 (UniProt Q8TEP8), the log2 fold change was inactive: -0.213.

Consider CHMP1B (UniProt Q7LBR1), for which the log2 fold change is inactive: 0.

Take CHCHD7 isoform 4 (UniProt Q9BUK0): the log2 fold change is inactive: -0.017.

Consider CFL2 (UniProt Q9Y281), for which the log2 fold change is inactive: -0.017.

In the case of CDKAL1 (UniProt Q5VV42), the log2 fold change is inactive: 0.

For CEP170 (UniProt Q5SW79), the log2 fold change is inactive: 0.119.

For the target CHCHD3 (UniProt Q9NX63), the log2 fold change is inactive: -0.018.

For the target CFAP298 (UniProt P57076), the log2 fold change is inactive: 0.127.

On to CHKB (UniProt Q9Y259), for which the log2 fold change was inactive: 0.001.

Regarding CHMP1A (UniProt Q9HD42), the log2 fold change was inactive: -0.037.

For the target CHML (UniProt P26374), the log2 fold change is inactive: 0.

Compound in a further experiment: COC(=O)[C@H](CCSC)NC(=O)C1=C(C=C(C=C1)NC[C@H](CS)N)C2=CC=CC=C2
The experiment is described as above. The method, boiled down:
as §1
Turning to CEP44 (UniProt Q9C0F1), the log2 fold change is inactive: 0.177.

In the case of CDYL (UniProt Q9Y232), the log2 fold change is inactive: 0.056.

For CFH (UniProt P08603), the log2 fold change is inactive: 0.067.

With CHD6 (UniProt Q8TD26), the log2 fold change was inactive: 0.235.

In the case of CFL1 (UniProt P23528), the log2 fold change was inactive: 0.003.

For the target CDCA5 (UniProt Q96FF9), the log2 fold change was inactive: 0.009.

For CHD5 (UniProt Q8TDI0), the log2 fold change is inactive: -0.167.

Regarding CEP250 (UniProt Q9BV73), the log2 fold change is inactive: -0.13.

Turning to CHMP2A (UniProt O43633), the log2 fold change is inactive: -0.026.

On to CHAF1B (UniProt Q13112), for which the log2 fold change is inactive: 0.008.

CHM (UniProt P24386): the log2 fold change is inactive: 0.06.

CENPH (UniProt Q9H3R5): the log2 fold change was inactive: -0.283.

Take CDKN2C (UniProt P42773): the log2 fold change is inactive: -0.066.

For the target CELF1 isoform 4 (UniProt Q92879), the log2 fold change was inactive: -0.105.

Turning to CDIPT (UniProt O14735), the log2 fold change is inactive: 0.112.

For CFAP20 (UniProt Q9Y6A4), the log2 fold change was inactive: 0.027.

For the target CDC42EP4 (UniProt Q9H3Q1), the log2 fold change is inactive: 0.056.

For the target CDK19 (UniProt Q9BWU1), the log2 fold change was inactive: -0.005.

With CENPF (UniProt P49454), the log2 fold change was inactive: 0.072.

Turning to CERS6 isoform 2 (UniProt Q6ZMG9), the log2 fold change was inactive: 0.007.

Take CHEK2 isoform 9 (UniProt O96017): the log2 fold change is inactive: 0.009.

Regarding CDC42BPA isoform 6 (UniProt Q5VT25), the log2 fold change was inactive: -0.064.

Regarding CEP97 isoform 2 (UniProt Q8IW35), the log2 fold change is inactive: -0.07.

Take CDK9 isoform 2 (UniProt P50750): the log2 fold change is inactive: -0.091.

For CENPO (UniProt Q9BU64), the log2 fold change is inactive: -0.011.

Take CDCA3 (UniProt Q99618): the log2 fold change is inactive: 0.006.

In the case of CDS2 (UniProt O95674), the log2 fold change is inactive: 0.007.

CEP192 (UniProt Q8TEP8): the log2 fold change was inactive: 0.214.

For the target CHMP1B (UniProt Q7LBR1), the log2 fold change was inactive: 0.058.

For CHCHD7 isoform 4 (UniProt Q9BUK0), the log2 fold change was inactive: 0.083.

Consider CFL2 (UniProt Q9Y281), for which the log2 fold change is inactive: 0.006.

With CDKAL1 (UniProt Q5VV42), the log2 fold change is inactive: -0.001.

As to CEP170 (UniProt Q5SW79), the log2 fold change is inactive: 0.036.

With CHCHD3 (UniProt Q9NX63), the log2 fold change was inactive: 0.029.

In the case of CFAP298 (UniProt P57076), the log2 fold change is inactive: -0.17.

On to CHKB (UniProt Q9Y259), for which the log2 fold change is inactive: 0.021.

CHMP1A (UniProt Q9HD42): the log2 fold change is inactive: 0.054.

CHML (UniProt P26374): the log2 fold change was inactive: -0.007.
